± gives the standard deviation of the averaged measurements. Most values lie at the floor of the assay. Slopes are relative: functional sequences can read slightly below zero.

The test system of this data set is Saccharomyces cerevisiae PS128 hsf1 delta, HSF1(1-493) fusion. Nature of the data set: growth estimate (transactivation domain function in HSF1 fusion, heat-shock survival) (a.u. (slope of normalised read count over time)); higher = stronger growth at 37°C, i.e. more transactivation activity. The settings on record: library: random library.
For HTRFSQLRDAP, the growth estimate was < -0.25.

On to VWHDAFKLVSIGRQEP, for which the growth estimate was < -0.25.

For SDFSKSA, the growth estimate is < -0.25.

On to RWPDKPCCSRE, for which the growth estimate is < -0.25.

As to QISVHTLPATPKRQNRPPPS, the growth estimate was < -0.25.

With SDERRVLAGKSRGLGTHSGS, the growth estimate was < -0.25.

Take RGTPVLVFLTPRAIPFTNLP: the growth estimate is < -0.25.

For YAGRVSPLGVNHPCGGYDGE, the growth estimate is < -0.25.

For the substance VVL, the growth estimate is < -0.25.

As for SDLHN, the growth estimate is -0.229.

Consider RISLDVIAIREFDLHGVQHC, for which the growth estimate is < -0.25.

For the substance EIFSGDRARGRGDMQCLVKR, the growth estimate is < -0.25.

In the case of CGITSEPILASYDVMGTPTI, the growth estimate is < -0.25.

For the substance RGRGLSSEK, the growth estimate was < -0.25.

LFRRATFSIKCDQSS: the growth estimate was < -0.25.

On to WNELTERTFPGTEGE, for which the growth estimate was < -0.25.

On to FVILSLGLRTLSCVSKGGSP, for which the growth estimate was < -0.25.

For the substance CRRMYTDRRARTGPGTRSRL, the growth estimate was < -0.25.

With ARVFNPVVLAVQNRMLPASN, the growth estimate was < -0.25.

As for MEASATSASGITCRPVLDVA, the growth estimate is < -0.25.

On to RAIAHGWRLVNEEMGIGRRK, for which the growth estimate was < -0.25.

For KPPQVLPHSSQAESLVSYDS, the growth estimate was -0.0664.

As for DVVRY, the growth estimate is < -0.25.

As to TLRCLLLSLL, the growth estimate was < -0.25.

SKWPDLGDLIDKDTPPFAFL: the growth estimate was 4.83.

For the substance SFYATYLSIIEV, the growth estimate was < -0.25.

GKGVCFTLFRSVYESLVTQR: the growth estimate was < -0.25.

Turning to CLEDI, the growth estimate is < -0.25.

As for CTRTFGPVQPGTLVNRGVLE, the growth estimate was < -0.25.

On to IEQRSCVTDELG, for which the growth estimate was < -0.25.

Regarding HKIDKTKVVGVSLVGERIPV, the growth estimate is -0.247.

NCVAHDVGACTPKGHRRTAS: the growth estimate is < -0.25.

As to RCNQDRVIPQRLIRWEAETR, the growth estimate is < -0.25.

Turning to SSMQFVRPRLFDIWSIELPQ, the growth estimate was < -0.25.

For SRCLVRWAASGKECGRRRDQ, the growth estimate was < -0.25.

Turning to GGGRRRLSLLLSQYSSNKYP, the growth estimate was < -0.25.

In the case of LWCVA, the growth estimate is < -0.25.

In the case of RGLKSVGSLATLRSIAPWTA, the growth estimate is < -0.25.

As for LPSVTHGEPIRPVHGTPYPA, the growth estimate was < -0.25.

With GEPLHNFARCF, the growth estimate is -0.199.

Take AESELISRPNTDLDFVLTST: the growth estimate is < -0.25.

On to GVGMTIINLC, for which the growth estimate is < -0.25.

As to VRVLNYTHFSRFSNLPSLRH, the growth estimate was < -0.25.

On to IVVRRVSMLDSSLRPQLRLR, for which the growth estimate is < -0.25.

SERSRPQEA: the growth estimate was < -0.25.

With DLSEMLLPQVLPR, the growth estimate was < -0.25.

For the substance FTGTNTTLHFLDLVLRNANA, the growth estimate is < -0.25.

For YIRSKSVNAYRRMRTLMSIL, the growth estimate is < -0.25.

CFVRGDTLLNAHVHIIFPRS: the growth estimate is < -0.25.

Regarding GLNALGLCSTFRRKYKPLDS, the growth estimate was < -0.25.

On to QPVQSLGPLVQSCLQMELRM, for which the growth estimate is < -0.25.

Take LVKPCQCRRHPGRTYWCRHR: the growth estimate is < -0.25.

Consider ETSSCDPCSGTLTFSCCAVG, for which the growth estimate is < -0.25.

Take SVRILREAPVPKGLLL: the growth estimate is < -0.25.

Take TDREAYTC: the growth estimate is < -0.25.

For the substance GHDLWRVNHEFGTVRDA, the growth estimate is < -0.25.

As to THTQSGPRHEVRQIRQSRHA, the growth estimate was < -0.25.

Turning to SPNVGIR, the growth estimate is < -0.25.

Consider PEYSLWRWQCVSS, for which the growth estimate was < -0.25.

VGCLPYKVKCSSQTPSRTTC: the growth estimate is 0.069.

Consider TTGG, for which the growth estimate was < -0.25.

Regarding GTRFKVWPGARTR, the growth estimate was < -0.25.

With KYRVVS, the growth estimate is < -0.25.

With CWCQPTFPYKDWEQIVPVST, the growth estimate was < -0.25.

Turning to KEGSSGSRSWLPLLLIITNP, the growth estimate was < -0.25.

Regarding RASP, the growth estimate is < -0.25.

Regarding YRWRVPVSARWAYESKSPED, the growth estimate is < -0.25.

In the case of DNINQVSQG, the growth estimate was < -0.25.

With TLC, the growth estimate is < -0.25.

As to CVARGYIFQERSN, the growth estimate is < -0.25.

On to RQLFCTSGVIGWVSTWATER, for which the growth estimate was -0.246.

With GIRLTWIQSAIFADGEMRTF, the growth estimate was < -0.25.

Take LGFKFAYRCLRLT: the growth estimate is < -0.25.

Turning to SCFGRAPPGVYDSS, the growth estimate was < -0.25.

For VVHCNQPSLASLKIRPTLRT, the growth estimate was < -0.25.

As for DEKAVGRVLCRSFF, the growth estimate was < -0.25.

For WEYEASESANGWSLCGRLQI, the growth estimate is < -0.25.

On to PSREATESRFYPCLRYMFPS, for which the growth estimate was < -0.25.

RIKGSDS: the growth estimate was < -0.25.

DSPRHNALSKRNLRRHAKSG: the growth estimate was < -0.25.

Consider QLSA, for which the growth estimate was < -0.25.

As to LMKLWNCGLTEQCFT, the growth estimate was < -0.25.

With SILVYGIPYLFLCKTVILDG, the growth estimate was < -0.25.

In the case of RFWWYYRSIHGTRLRSGSKQ, the growth estimate is < -0.25.

With PSCPIRGGFSGHSWGFRLPS, the growth estimate is < -0.25.

As for SEE, the growth estimate is -0.2486 ± 0.0024.

In the case of TALPQ, the growth estimate was < -0.25.

Take SDPVVASPKARWLRHVTLKP: the growth estimate was -0.243.

As for VTSISTLTNAQGVTRERTVQ, the growth estimate was < -0.25.

For ASSSGPE, the growth estimate is < -0.25.

Regarding TGMKGPRATPTHAPNSLRTR, the growth estimate was < -0.25.

As for VTRGTWMQRLNVIMWKSLSQ, the growth estimate was < -0.25.

As for RVEVVSG, the growth estimate is < -0.25.

RSCCVVLRLYHDPWSVNSPG: the growth estimate is < -0.25.

Take CTLALRKRVRQRWCISDFGP: the growth estimate is < -0.25.

For the substance GEHVNKLSMASHVIVVFPVR, the growth estimate is < -0.25.

On to IIVMVRAFGRQPWRPDRKRT, for which the growth estimate was < -0.25.

On to ALMCMREKTVDFPFVCPVDK, for which the growth estimate was < -0.25.

For the substance ASVILPFGTKRIRQPRCRGT, the growth estimate was < -0.25.

As for TTGVLFTLTMGKGPPLAGHP, the growth estimate was < -0.25.

As for KGDSAVNARDHRDIDGLDNE, the growth estimate was < -0.25.

Turning to WEL, the growth estimate is < -0.25.

With EEGHFGSH, the growth estimate is < -0.25.

For IVASPLMGGGQRED, the growth estimate is < -0.25.

For LYGPADRVIVSVVNERARPL, the growth estimate is < -0.25.

As to RAFGISVETRAVGKVLHYNS, the growth estimate was < -0.25.

In the case of GVGVRVPALFLL, the growth estimate was < -0.25.

As to PYITAANKH, the growth estimate is < -0.25.

As to RQFGESVCAQT, the growth estimate was < -0.25.

RLLPIQNKRFLPNLRVPCSV: the growth estimate is < -0.25.

Consider RGLGHMIHSKSALGAPGSVR, for which the growth estimate is < -0.25.

With RTLSRIERGRATMLETGLVW, the growth estimate was < -0.25.

The record behind these values is the supplement of paper PMC5949888.
